In the supplement of paper PMC10331698:
± gives the standard deviation of the averaged measurements. Most values lie at the level of the controls, where differences are scatter.

Legend:
Assay in all cases: level (log10 ratio to DMSO vehicle control); higher = higher biomarker level / cell amount than vehicle control
1-(Perfluorohexyl)octane = compound: CCCCCCCCC(F)(F)C(F)(F)C(F)(F)C(F)(F)C(F)(F)C(F)(F)F [1-(Perfluorohexyl)octane]; conditions: in DMSO
Protocol: (§1)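 BioMAP Diversity Plus panel of 12 human primary cell co-culture systems (3C, 4H, LPS, SAg, BT, BF4T, BE3C, CASM3C, HDF3CGF, KF3CT, MyoF, Mphg). Compounds were added 1 h before stimulation and left for 24 h (MyoF 48 h; BT 72 h for soluble read-outs or 6 d for IgG). Biomarkers were read by ELISA, cytotoxicity by SRB, PBMC viability and proliferation by Alamar Blue. Each well value was divided by the mean of 8 DMSO control wells on the same plate and log10 transformed; duplicate blinded samples were tested at 4 concentrations.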

[1] = compound: OCCC(F)(F)C(F)(F)C(F)(F)C(F)(F)C(F)(F)C(F)(F)F [6:2 Fluorotelomer alcohol]; conditions: 2200 nM; in DMSO
Protocol: as §1

[2] = compound: Cc1ccc(S(=O)(=O)OCC(F)(F)C(F)(F)C(F)(F)C(F)(F)C(F)(F)C(F)F)cc1 [1H,1H,7H-Perfluoroheptyl 4-methylbenzenesulfonate]; conditions: 2200 nM; in DMSO
Protocol: as §1

[3] = compound: O=C(O)C(F)(F)C(F)(F)C(F)(F)C(F)(F)C(F)(F)C(F)(F)C(F)(F)C(F)(F)C(F)(F)C(F)F [11-H-Perfluoroundecanoic acid]; conditions: 2200 nM; in DMSO
Protocol: as §1

[4] = compound: O=C(O)C(F)(F)C(F)(F)C(F)(F)OC(F)(F)F [Perfluoro(4-methoxybutanoic) acid]; conditions: 2200 nM; in DMSO
Protocol: as §1

Perfluoropentanoic acid = compound: O=C(O)C(F)(F)C(F)(F)C(F)(F)C(F)(F)F [Perfluoropentanoic acid]; conditions: in DMSO
Protocol: as §1

[5] = compound: FC(F)(F)C(F)(F)C(F)(F)C(F)(F)C(F)(F)C(F)(F)CC1CO1 [3-(Perfluorohexyl)-1,2-epoxypropane]; conditions: 2200 nM; in DMSO
Protocol: as §1

[6] = compound: NCC(F)(F)C(F)(F)C(F)(F)C(F)(F)C(F)(F)C(F)(F)C(F)(F)F [1H,1H-Perfluorooctylamine]; conditions: 2200 nM; in DMSO
Protocol: as §1

1H,1H-Heptafluorobutanol = compound: OCC(F)(F)C(F)(F)C(F)(F)F [1H,1H-Heptafluorobutanol]; conditions: 2200 nM; in DMSO
Protocol: as §1

[7] = compound: CCN(CCO)S(=O)(=O)C(F)(F)C(F)(F)C(F)(F)C(F)(F)C(F)(F)C(F)(F)C(F)(F)C(F)(F)F [N-Ethyl-N-(2-hydroxyethyl)perfluorooctanesulfonamide]; conditions: in DMSO
Protocol: as §1

[8] = compound: CC(C)(C)C(=O)CC(=O)C(F)(F)C(F)(F)C(F)(F)F [(Heptafluorobutanoyl)pivaloylmethane]; conditions: 2200 nM; in DMSO
Protocol: as §1

[9] = compound: CN(C(=O)C(F)(F)C(F)(F)C(F)(F)F)[Si](C)(C)C [N-Methyl-N-trimethylsilylheptafluorobutyramide]; conditions: 2200 nM; in DMSO
Protocol: as §1

Octafluoroadipic acid = compound: O=C(O)C(F)(F)C(F)(F)C(F)(F)C(F)(F)C(=O)O [Octafluoroadipic acid]; conditions: 2200 nM; in DMSO
Protocol: as §1

Perfluoroheptanoic acid = compound: O=C(O)C(F)(F)C(F)(F)C(F)(F)C(F)(F)C(F)(F)C(F)(F)F [Perfluoroheptanoic acid]; conditions: in DMSO
Protocol: as §1

[10] = compound: O=S(=O)(O)CCC(F)(F)C(F)(F)C(F)(F)C(F)(F)C(F)(F)C(F)(F)C(F)(F)C(F)(F)F [8:2 Fluorotelomer sulfonic acid]; conditions: in DMSO
Protocol: as §1

Heptafluorobutyramide = compound: NC(=O)C(F)(F)C(F)(F)C(F)(F)F [Heptafluorobutyramide]; conditions: 2200 nM; in DMSO
Protocol: as §1

Row | Test System | level (log10) (1-(Perfluorohexyl)octane; 740 nM) | level (log10) (1-(Perfluorohexyl)octane; 2200 nM) | level (log10) [1] | level (log10) [2] | level (log10) [3] | level (log10) [4] | level (log10) (Perfluoropentanoic acid; 2200 nM) | level (log10) (Perfluoropentanoic acid; 6700 nM) | level (log10) (Perfluoropentanoic acid; 20000 nM) | level (log10) (Perfluoropentanoic acid; 60000 nM) | level (log10) [5] | level (log10) [6] | level (log10) (1H,1H-Heptafluorobutanol) | level (log10) ([7]; 2200 nM) | level (log10) ([7]; 6700 nM) | level (log10) ([7]; 20000 nM) | level (log10) [8] | level (log10) [9] | level (log10) (Octafluoroadipic acid) | level (log10) (Perfluoroheptanoic acid; 2200 nM) | level (log10) (Perfluoroheptanoic acid; 6700 nM) | level (log10) (Perfluoroheptanoic acid; 20000 nM) | level (log10) (Perfluoroheptanoic acid; 60000 nM) | level (log10) ([10]; 2200 nM) | level (log10) ([10]; 6700 nM) | level (log10) ([10]; 20000 nM) | level (log10) ([10]; 60000 nM) | level (log10) (Heptafluorobutyramide)
1 | CASM3C:SRB | 0.005 ± 0.017 | 0 ± 0.0099 | 0.0115 ± 0.028 | 0.004 ± 0.0028 | 0.0075 ± 0.005 | -0.0095 ± 0.00071 | 0.012 ± 0.018 | 0.0095 ± 0.0021 | -0.008 ± 0.0014 | 0.004 ± 0.0099 | 0.003 ± 0.0071 | -0.0005 ± 0.00071 | 0.007 ± 0.0028 | -0.01 ± 0.0042 | -0.0265 ± 0.0078 | -0.097 ± 0.014 | 0.004 ± 0.0014 | -0.001 ± 0.011 | -0.0045 ± 0.00071 | 0.0035 ± 0.0035 | -0.008 ± 0.0099 | -0.011 ± 0.0014 | -0.0065 ± 0.012 | 0.0055 ± 0.015 | 0.0075 ± 0.005 | 0.0055 ± 0.005 | 0.0105 ± 0.0035 | -0.015 ± 0.023
2 | CASM3C:Serum Amyloid A | 0.0115 ± 0.064 | -0.023 ± 0.017 | 0.0245 ± 0.079 | 0.0265 ± 0.039 | 0.019 | -0.0035 ± 0.023 | 0.006 ± 0.03 | -0.003 ± 0.0071 | -0.013 ± 0.011 | -0.0045 ± 0.033 | 0.0235 ± 0.064 | 0.0185 ± 0.033 | -0.018 ± 0.0014 | -0.029 ± 0.031 | 0.0875 ± 0.037 | 0.129 ± 0.042 | 0 ± 0.0028 | -0.0005 ± 0.04 | -0.016 ± 0.089 | 0.039 ± 0.041 | -0.006 ± 0.021 | -0.013 ± 0.04 | 0.022 ± 0.082 | 0.0285 ± 0.012 | 0.0195 ± 0.0064 | 0.0475 ± 0.025 | 0.096 ± 0.0042 | 0.0095 ± 0.033
3 | HDF3CGF:CCL2/MCP-1 | -0.0075 ± 0.011 | -0.0175 ± 0.0035 | -0.0085 ± 0.018 | -0.01 ± 0.031 | 0.0065 ± 0.019 | 0.009 ± 0.02 | -0.053 ± 0.05 | -0.03 ± 0.017 | -0.054 ± 0.013 | -0.022 ± 0.048 | -0.0005 ± 0.013 | -0.001 ± 0.024 | -0.005 ± 0.0099 | 0.006 ± 0.0085 | -0.0485 ± 0.005 | -0.1335 ± 0.00071 | -0.0195 ± 0.00071 | -0.011 ± 0.0014 | 0.0215 ± 0.07 | 0.0045 ± 0.011 | -0.0085 ± 0.0064 | 0.0135 ± 0.00071 | 0.0115 ± 0.016 | 0.012 ± 0.045 | 0.0005 ± 0.022 | -0.008 ± 0.03 | 0.0115 ± 0.022 | 0.01 ± 0.027
4 | HDF3CGF:CD54/ICAM-1 | -0.0045 ± 0.015 | -0.011 ± 0.0099 | -0.0165 ± 0.013 | -0.0075 ± 0.00071 | -0.0335 ± 0.012 | -0.0055 ± 0.0078 | 0.0415 ± 0.071 | 0.039 ± 0.054 | 0.035 ± 0.033 | 0.0485 ± 0.046 | -0.016 ± 0.0014 | -0.0025 ± 0.025 | -0.0045 ± 0.00071 | 0.084 ± 0.0071 | 0.133 ± 0.019 | 0.089 ± 0.0042 | -0.0065 ± 0.012 | -0.008 ± 0.025 | 0 ± 0.016 | -0.0045 ± 0.0021 | 0.004 ± 0.02 | -0.0145 ± 0.005 | -0.0255 ± 0.018 | -0.031 ± 0.035 | -0.012 ± 0.017 | -0.04 ± 0.011 | -0.0805 ± 0.012 | -0.007 ± 0.013
5 | HDF3CGF:CD106/VCAM-1 | -0.026 ± 0.023 | -0.031 ± 0.03 | -0.016 ± 0.013 | -0.035 ± 0.0099 | -0.0605 ± 0.14 | 0.0105 ± 0.0035 | -0.0025 ± 0.00071 | -0.0095 ± 0.005 | 0.0035 ± 0.036 | 0.0035 ± 0.022 | -0.0195 ± 0.04 | -0.0515 ± 0.012 | -0.0775 ± 0.00071 | -0.0215 ± 0.042 | -0.0825 ± 0.046 | -0.173 ± 0.11 | -0.046 ± 0.04 | -0.01 ± 0.011 | -0.0255 ± 0.0035 | -0.019 ± 0.0014 | -0.034 ± 0.027 | -0.0135 ± 0.029 | -0.021 ± 0.038 | -0.0055 ± 0.12 | 0.0015 ± 0.091 | 0.007 ± 0.073 | -0.072 ± 0.045 | -0.0265 ± 0.016
